Measurements published in US20010051636A1, “Combination treatment for inhibiting bone loss” (priority 1994, published 2001).
Marks after values point to notes of the source that are not given here.

Test system: ovariectomized (ovex) rats
Test: 5-week ovex rat model of post-menopausal osteoporosis: femur density by X-ray grey scale image analysis
Type: in vivo
Settings: for RANGE 0-60 (relative density of bone, femur X-ray grey scale): Table 3
Protocol: In the following, a model of post-menopausal osteoporosis was used in which effects of different treatments upon femur density were determined.
Seventy-five day old female Sprague Dawley rats (weight range of 225 to 275 g) were obtained from Charles River Laboratories (Portage, Mich.). They were housed in groups of 3 and had ad libitum access to food (calcium content approximately 1%) and water. Room temperature was maintained at 22.2°±1.7° C. with a minimum relative humidity of 40%. The photoperiod in the room was 12 hours light and 12 hours dark.
One week after arrival, the rats underwent bilateral ovariectomy under anesthesia (44 mg/kg Ketamine and 5 mg/kg Xylazine (Butler, Indianapolis, Ind.) administered intramuscularly). Treatment with vehicle or the indicated compound was initiated either on the day of surgery following recovery from anesthesia or 35 days following the surgery.
Oral dosage was by gavage in 0.5 mL of 1% carboxymethylcellulose (CMC).
Body weight was determined at the time of surgery and weekly during the study, and the dosage was adjusted with changes in body weight. Vehicle-treated ovariectomized (ovex) rats and non-ovariectomized (intact) rats were evaluated in parallel with each experimental group to serve as negative and positive controls.
The rats were treated daily for 35 days (6 rats per treatment group) and sacrificed by decapitation on the 36th day. The 35-day time period was sufficient to allow maximal reduction in bone density, measured as described infra. At the time of sacrifice, the uteri were removed, dissected free of extraneous tissue, and the fluid contents were expelled before determination of wet weight in order to confirm estrogen deficiency associated with complete ovariectomy. […] The uteri were then placed in 10% neutral buffered formalin to allow for subsequent histological analysis.
The right femurs are excised and scanned at the distal metaphysis proximal from the growth plate region by grey scale image analysis of digitalized X-ray generation on a Nicolet NXR-1200 real time X-ray imaging system.

NCCCC(O)(P(=O)(O)O)P(=O)(O)O [ALN, Alendronate]
RANGE 0-50 (relative density of bone, femur X-ray grey scale) (Table 1, 0.1 mg/kg PO CDX, 47KV/4.5C, 35 days): 37.47
RANGE 0-50 (relative density of bone, femur X-ray grey scale) (Table 1, 1 mg/kg PO CDX, 47KV/4.5C, 35 days): 73.79*
RANGE 0-50 (relative density of bone, femur X-ray grey scale) (Table 2, 0.1 mg/kg PO CDX, 47KV/4.5C): 39.47
RANGE 0-50 (relative density of bone, femur X-ray grey scale) (Table 2, 1 mg/kg PO CDX): 65.60*
RANGE 0-60 (relative density of bone, femur X-ray grey scale) (0.1 mg/kg PO CDX, 47KV/4.5C): 47.25
RANGE 0-60 (relative density of bone, femur X-ray grey scale) (1 mg/kg PO CDX): 78.61*
